# Laboratory results as given in publication PMC5433425 (PeerJ, 2017).
# This continues a long series; more values of the same kind are listed elsewhere.
# Test system: E. coli AG100
# Assay: EtBr accumulation by real-time fluorometry
smiles,measurement,setting,value
"CC[n+]1c(-c2ccccc2)c2cc(N)ccc2c2ccc(N)cc21 [EtBr, ethidium bromide]",EtBr fluorescence,"EtBr 0.125 µg/ml, cycle 1",1.596
same,EtBr fluorescence,"EtBr 0.125 µg/ml, cycle 2",1.5028
same,EtBr fluorescence,"EtBr 0.125 µg/ml, cycle 3",1.588
same,EtBr fluorescence,"EtBr 0.125 µg/ml, cycle 4",1.592
same,EtBr fluorescence,"EtBr 0.125 µg/ml, cycle 5",1.597
same,EtBr fluorescence,"EtBr 0.125 µg/ml, cycle 6",1.63
same,EtBr fluorescence,"EtBr 0.125 µg/ml, cycle 7",1.663
same,EtBr fluorescence,"EtBr 0.125 µg/ml, cycle 8",1.624
same,EtBr fluorescence,"EtBr 0.125 µg/ml, cycle 9",1.729
same,EtBr fluorescence,"EtBr 0.125 µg/ml, cycle 10",1.694
same,EtBr fluorescence,"EtBr 0.125 µg/ml, cycle 11",1.673
same,EtBr fluorescence,"EtBr 0.125 µg/ml, cycle 12",1.714
same,EtBr fluorescence,"EtBr 0.125 µg/ml, cycle 13",1.753
same,EtBr fluorescence,"EtBr 0.125 µg/ml, cycle 14",1.743
same,EtBr fluorescence,"EtBr 0.125 µg/ml, cycle 15",1.752
same,EtBr fluorescence,"EtBr 0.125 µg/ml, cycle 16",1.792
same,EtBr fluorescence,"EtBr 0.125 µg/ml, cycle 17",1.836
same,EtBr fluorescence,"EtBr 0.125 µg/ml, cycle 18",1.815
same,EtBr fluorescence,"EtBr 0.125 µg/ml, cycle 19",1.776
same,EtBr fluorescence,"EtBr 0.125 µg/ml, cycle 20",1.819
same,EtBr fluorescence,"EtBr 0.125 µg/ml, cycle 21",1.854
same,EtBr fluorescence,"EtBr 0.125 µg/ml, cycle 22",1.831
same,EtBr fluorescence,"EtBr 0.125 µg/ml, cycle 23",1.848
same,EtBr fluorescence,"EtBr 0.125 µg/ml, cycle 24",1.851
same,EtBr fluorescence,"EtBr 0.125 µg/ml, cycle 25",1.842
same,EtBr fluorescence,"EtBr 0.125 µg/ml, cycle 26",1.887
same,EtBr fluorescence,"EtBr 0.125 µg/ml, cycle 27",1.836
same,EtBr fluorescence,"EtBr 0.125 µg/ml, cycle 28",1.871
same,EtBr fluorescence,"EtBr 0.125 µg/ml, cycle 29",1.872
same,EtBr fluorescence,"EtBr 0.125 µg/ml, cycle 30",1.881
same,EtBr fluorescence,"EtBr 3 µg/ml, cycle 1",12.6101
same,EtBr fluorescence,"EtBr 3 µg/ml, cycle 2",13.0793
same,EtBr fluorescence,"EtBr 3 µg/ml, cycle 3",13.6179
same,EtBr fluorescence,"EtBr 3 µg/ml, cycle 4",14.2557
same,EtBr fluorescence,"EtBr 3 µg/ml, cycle 5",14.5518
same,EtBr fluorescence,"EtBr 3 µg/ml, cycle 6",15.1909
same,EtBr fluorescence,"EtBr 3 µg/ml, cycle 7",15.8375
same,EtBr fluorescence,"EtBr 3 µg/ml, cycle 8",16.2305
same,EtBr fluorescence,"EtBr 3 µg/ml, cycle 9",16.4498
same,EtBr fluorescence,"EtBr 3 µg/ml, cycle 10",17.2387
same,EtBr fluorescence,"EtBr 3 µg/ml, cycle 11",17.7887
same,EtBr fluorescence,"EtBr 3 µg/ml, cycle 12",18.2573
same,EtBr fluorescence,"EtBr 3 µg/ml, cycle 13",18.6703
same,EtBr fluorescence,"EtBr 3 µg/ml, cycle 14",19.2327
same,EtBr fluorescence,"EtBr 3 µg/ml, cycle 15",19.3909
same,EtBr fluorescence,"EtBr 3 µg/ml, cycle 16",19.6195
same,EtBr fluorescence,"EtBr 3 µg/ml, cycle 17",20.0684
same,EtBr fluorescence,"EtBr 3 µg/ml, cycle 18",20.5143
same,EtBr fluorescence,"EtBr 3 µg/ml, cycle 19",20.5974
same,EtBr fluorescence,"EtBr 3 µg/ml, cycle 20",21.168
same,EtBr fluorescence,"EtBr 3 µg/ml, cycle 21",21.4601
same,EtBr fluorescence,"EtBr 3 µg/ml, cycle 22",21.5036
same,EtBr fluorescence,"EtBr 3 µg/ml, cycle 23",21.9456
same,EtBr fluorescence,"EtBr 3 µg/ml, cycle 24",22.1454
same,EtBr fluorescence,"EtBr 3 µg/ml, cycle 25",22.6033
same,EtBr fluorescence,"EtBr 3 µg/ml, cycle 26",22.8264
same,EtBr fluorescence,"EtBr 3 µg/ml, cycle 27",23.1827
same,EtBr fluorescence,"EtBr 3 µg/ml, cycle 28",23.3717
same,EtBr fluorescence,"EtBr 3 µg/ml, cycle 29",23.5013
same,EtBr fluorescence,"EtBr 3 µg/ml, cycle 30",23.4632
same,EtBr fluorescence,"EtBr 4 µg/ml, cycle 1",17.1477
same,EtBr fluorescence,"EtBr 4 µg/ml, cycle 2",17.8876
same,EtBr fluorescence,"EtBr 4 µg/ml, cycle 3",18.6599
same,EtBr fluorescence,"EtBr 4 µg/ml, cycle 4",19.5698
same,EtBr fluorescence,"EtBr 4 µg/ml, cycle 5",20.1045
same,EtBr fluorescence,"EtBr 4 µg/ml, cycle 6",21.3024
same,EtBr fluorescence,"EtBr 4 µg/ml, cycle 7",22.1491
same,EtBr fluorescence,"EtBr 4 µg/ml, cycle 8",23.0927
same,EtBr fluorescence,"EtBr 4 µg/ml, cycle 9",23.7587
same,EtBr fluorescence,"EtBr 4 µg/ml, cycle 10",24.5437
same,EtBr fluorescence,"EtBr 4 µg/ml, cycle 18",29.2197
same,EtBr fluorescence,"EtBr 4 µg/ml, cycle 19",29.4745
same,EtBr fluorescence,"EtBr 4 µg/ml, cycle 20",30.2731
same,EtBr fluorescence,"EtBr 4 µg/ml, cycle 21",30.3914
same,EtBr fluorescence,"EtBr 4 µg/ml, cycle 22",30.608
same,EtBr fluorescence,"EtBr 4 µg/ml, cycle 23",30.9119
same,EtBr fluorescence,"EtBr 4 µg/ml, cycle 24",31.2605
same,EtBr fluorescence,"EtBr 4 µg/ml, cycle 25",31.8732
same,EtBr fluorescence,"EtBr 4 µg/ml, cycle 26",32.0024
same,EtBr fluorescence,"EtBr 4 µg/ml, cycle 27",32.0831
same,EtBr fluorescence,"EtBr 4 µg/ml, cycle 28",32.8308
same,EtBr fluorescence,"EtBr 4 µg/ml, cycle 29",33.0276
same,EtBr fluorescence,"EtBr 4 µg/ml, cycle 30",33.2165
same,EtBr fluorescence,"EtBr 5 µg/ml, cycle 1",23.5626
same,EtBr fluorescence,"EtBr 5 µg/ml, cycle 2",24.6717
same,EtBr fluorescence,"EtBr 5 µg/ml, cycle 7",30.0656
same,EtBr fluorescence,"EtBr 5 µg/ml, cycle 8",31.1584
same,EtBr fluorescence,"EtBr 5 µg/ml, cycle 9",32.0155
same,EtBr fluorescence,"EtBr 5 µg/ml, cycle 10",33.0472
same,EtBr fluorescence,"EtBr 5 µg/ml, cycle 11",33.9366
same,EtBr fluorescence,"EtBr 5 µg/ml, cycle 12",34.8181
same,EtBr fluorescence,"EtBr 5 µg/ml, cycle 13",35.3605
same,EtBr fluorescence,"EtBr 5 µg/ml, cycle 14",36.3128
same,EtBr fluorescence,"EtBr 5 µg/ml, cycle 15",36.6225
same,EtBr fluorescence,"EtBr 5 µg/ml, cycle 16",37.2802
same,EtBr fluorescence,"EtBr 5 µg/ml, cycle 17",38.096
same,EtBr fluorescence,"EtBr 5 µg/ml, cycle 18",38.4456
same,EtBr fluorescence,"EtBr 5 µg/ml, cycle 19",39.2156
same,EtBr fluorescence,"EtBr 5 µg/ml, cycle 20",39.6677
same,EtBr fluorescence,"EtBr 5 µg/ml, cycle 21",40.134
same,EtBr fluorescence,"EtBr 5 µg/ml, cycle 22",40.5214
same,EtBr fluorescence,"EtBr 5 µg/ml, cycle 23",41.3819
same,EtBr fluorescence,"EtBr 5 µg/ml, cycle 24",41.5393
same,EtBr fluorescence,"EtBr 5 µg/ml, cycle 25",42.4562
same,EtBr fluorescence,"EtBr 5 µg/ml, cycle 26",42.4714
same,EtBr fluorescence,"EtBr 5 µg/ml, cycle 27",42.6647
same,EtBr fluorescence,"EtBr 5 µg/ml, cycle 28",43.2439
same,EtBr fluorescence,"EtBr 5 µg/ml, cycle 29",42.9365
same,EtBr fluorescence,"EtBr 5 µg/ml, cycle 30",43.6808
